Taken from: PubChem BioAssay AID743454 (Peter MacCallum Cancer Centre, 2014)

Assay: 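Search for knock-downs that restore vorinostat killing in resistant colon cancer cells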 (primary screen)
Cells: human HCT116-VR colon cancer cells, selected for vorinostat resistance
Reagent: siRNA pool against human genes, 40 nM siRNA pool
Duration: vorinostat for 24 h, read-out about 72 h after transfection
Conditions: vorinostat at 2.5 µM final
Read-out: 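Cell viability by CellTiter-Fluor and caspase 3/7 activity by luminescence, each scaled to mock wells per plate, duplicates averaged, then robust z-scored over all plates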
Scale: viability robust z-score: higher = more viable cells than screen typical; caspase robust z-score: higher = more caspase 3/7 activity than screen typical
Rule for the call: 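Hits are knock-downs in viability class RV1/RV2 or caspase class CA1/CA2, excluding ones that killed cells in the no-drug cell-count arm; hits then retested with single siRNAs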
Shown is a random part of about 18,000 deposited reagents. Over the whole deposit, 450 (2.5%) are marked active. 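Single biological run; no consistent viability z cut-off exists, so the class columns, not z-scores, define the calls.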 Entries without a mark were called inactive. The numbers tell different reagents against one gene apart.

gene knocked down,pool no.,viability hit class,caspase hit class,viability robust z-score,caspase robust z-score
GINS4 (GINS complex subunit 4),1,no change,no change,-1.56,0.38
TBX1 (T-box transcription factor 1),1,no change,no change,-0.8,0.6
ASB15 (ankyrin repeat and SOCS box containing 15),1,no change,no change,-0.57,-0.52
TRIM38 (tripartite motif containing 38),1,no change,no change,1.01,0.12
HCRTR1 (hypocretin receptor 1),1,no change,no change,0.68,0.43
TNN (tenascin N),1,no change,no change,-0.46,2.59
EVL (Enah/Vasp-like),1,no change,no change,0.45,1.21
AIG1 (androgen induced 1),1,no change,no change,-0.46,0.1
SEMA4D (semaphorin 4D),1,no change,no change,0.76,1.07
SEMA4D (semaphorin 4D),2,no change,no change,-0.12,1.79
KRTAP20-1 (keratin associated protein 20-1),1,no change,no change,0.18,0.26
NUTM1 (NUT midline carcinoma family member 1),1,no change,no change,-0.43,-0.7
OIT3 (oncoprotein induced transcript 3),1,no change,no change,0.86,0.15
CA2 (carbonic anhydrase 2),1,no change,no change,0.47,0.36
GORASP2 (golgi reassembly stacking protein 2),1,no change,no change,0.54,-0.68
ZFP14 (ZFP14 zinc finger protein),1,no change,no change,-0.02,-0.97
ATP6V0D1 (ATPase H+ transporting V0 subunit d1),1,no change,no change,-1.82,-0.28
ADIPOR1 (adiponectin receptor 1),1,no change,no change,-0.65,0.94
SLCO1B3,1,no change,no change,0.24,0.4
CLCF1 (cardiotrophin like cytokine factor 1),1,no change,no change,-2.17,2.58
MFSD8 (major facilitator superfamily domain containing 8),1,no change,no change,0.08,-0.64
SGCD (sarcoglycan delta),1,no change,no change,1.2,0.23
GTF2H5 (general transcription factor IIH subunit 5),1,no change,no change,-0.2,-0.26
NMNAT3 (nicotinamide nucleotide adenylyltransferase 3),1,no change,no change,-2.88,1.61
PDE5A (phosphodiesterase 5A),1,no change,no change,-0.48,-0.87
RPS29 (ribosomal protein S29),1,no change,no change,-4.52,-1.58
MRGPRF (MAS related GPR family member F),1,no change,no change,0.14,2.53
ROMO1 (reactive oxygen species modulator 1),1,no change,no change,-1.47,-0.89

The list goes on; the last 10 above are carried over.
gene knocked down,pool no.,viability hit class,caspase hit class,viability robust z-score,caspase robust z-score
SLCO1B3,1,no change,no change,0.24,0.4
CLCF1 (cardiotrophin like cytokine factor 1),1,no change,no change,-2.17,2.58
MFSD8 (major facilitator superfamily domain containing 8),1,no change,no change,0.08,-0.64
SGCD (sarcoglycan delta),1,no change,no change,1.2,0.23
GTF2H5 (general transcription factor IIH subunit 5),1,no change,no change,-0.2,-0.26
NMNAT3 (nicotinamide nucleotide adenylyltransferase 3),1,no change,no change,-2.88,1.61
PDE5A (phosphodiesterase 5A),1,no change,no change,-0.48,-0.87
RPS29 (ribosomal protein S29),1,no change,no change,-4.52,-1.58
MRGPRF (MAS related GPR family member F),1,no change,no change,0.14,2.53
ROMO1 (reactive oxygen species modulator 1),1,no change,no change,-1.47,-0.89
PIK3CB,1,no change,no change,-1.15,-0.31
TAS2R20 (taste 2 receptor member 20),1,no change,no change,0.03,-0.74
"HLA-DQB1 (major histocompatibility complex, class II, DQ beta 1)",1,no change,no change,0.46,0.75
SLC25A53,1,no change,no change,-1.04,2.66
DR1 (down-regulator of transcription 1),1,no change,no change,0.55,-0.82
ETFB (electron transfer flavoprotein subunit beta),1,no change,no change,-1.71,0.44
OR2D2 (olfactory receptor family 2 subfamily D member 2),1,no change,no change,0.2,0.54
CPD (carboxypeptidase D),1,no change,no change,-0.18,3.38
ATP6V1E1 (ATPase H+ transporting V1 subunit E1),1,no change,no change,-0.3,-0.94
PITPNM3 (PITPNM family member 3),1,no change,no change,-0.83,1.47
CD200R1L (CD200 receptor 1 like),1,no change,no change,1.23,0.81
FCGR1A (Fc gamma receptor Ia),1,no change,no change,0.2,-0.44
PGA4 (pepsinogen A4),1,no change,no change,-0.73,-0.22
"HRAS (HRas proto-oncogene, GTPase)",1,no change,no change,0,0.46
HTR3C (5-hydroxytryptamine receptor 3C),1,no change,no change,-0.2,-0.94
RNASEH2A (ribonuclease H2 subunit A),1,no change,no change,0.69,1.26
AFMID (arylformamidase),1,no change,no change,-1.56,-0.5
SMURF1 (SMAD specific E3 ubiquitin protein ligase 1),1,no change,no change,0.18,0.26
ZMAT4 (zinc finger matrin-type 4),1,no change,no change,-0.64,-0.35
TEX28 (testis expressed 28),1,no change,no change,-0.14,-0.09
SERPINB7 (serpin family B member 7),1,no change,no change,1.17,-1.04
LOC728919 (retired record),1,no change,no change,-0.78,3.7
ANP32B (acidic nuclear phosphoprotein 32 family member B),1,no change,no change,-0.76,-0.56
FBXW5 (F-box and WD repeat domain containing 5),1,no change,no change,-2.42,0.3
SNX13 (sorting nexin 13),1,no change,no change,0.25,-0.86
OR2A12 (olfactory receptor family 2 subfamily A member 12),1,no change,no change,-0.97,1.2
ADIG (adipogenin),1,no change,no change,1.56,-0.71
TMEM121 (transmembrane protein 121),1,no change,no change,-0.34,0.93
CCDC77 (coiled-coil domain containing 77),1,no change,no change,-1.57,2.79
CALN1 (calneuron 1),1,no change,no change,-1.05,1.65
SLC36A1,1,no change,no change,-1.75,0.79
DCAF4L1 (DDB1 and CUL4 associated factor 4 like 1),1,no change,no change,0.58,0.33
RCAN1 (regulator of calcineurin 1),1,no change,no change,-2.21,2.31
TAB3 (TGF-beta activated kinase 1 (MAP3K7) binding protein 3),1,no change,no change,-1.27,-0.12
"PFKFB3 (6-phosphofructo-2-kinase/fructose-2,6-biphosphatase 3)",1,no change,no change,-0.78,-0.45
SLC25A22,1,no change,no change,0.25,1.57
PIK3R5 (phosphoinositide-3-kinase regulatory subunit 5),1,no change,no change,-0.65,1.42
USP10 (ubiquitin specific peptidase 10),1,no change,no change,1.06,0
CPSF6 (cleavage and polyadenylation specific factor 6),1,no change,no change,-0.59,0.94
ELOA (elongin A),1,no change,no change,1.04,-0.24
MXD4 (MAX dimerization protein 4),1,no change,no change,0.02,-0.18
DENND1C (DENN domain containing 1C),1,no change,no change,-1.29,-0.8
PTGER3 (prostaglandin E receptor 3),1,no change,no change,0.02,-0.6
PCGF3 (polycomb group ring finger 3),1,no change,no change,-2.71,0.47
ARHGEF19 (Rho guanine nucleotide exchange factor 19),1,no change,no change,-0.83,-1
